According to publication PMC10113255, “PHF14 enhances DNA methylation of SMAD7 gene to promote TGF-β-driven lung adenocarcinoma metastasis”:

Assays:
Assay in all cases: EMSA
[1] = biological target: T1, PHF14 ePHD domain E430A K435A (Homo sapiens) (UniProt O94880); conditions: text: 'drastically vanished', text says methylated CG-rich probe, legend says unmethylated, SPR shows residual binding; EMSA: LightShift kit protocol, 0.5x TBE native PAGE, buffer not stated; recombinant protein; protein details: His (EMSA, purification method), FLAG (SPR); label: biotin (EMSA)
T1 sequence (looked up, limits assumed): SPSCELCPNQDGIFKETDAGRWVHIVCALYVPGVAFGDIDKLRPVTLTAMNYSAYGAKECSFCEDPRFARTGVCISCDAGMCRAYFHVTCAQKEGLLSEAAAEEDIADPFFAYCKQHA

[2] = tested on: T2, PHF14 full-length E430A K435A (Homo sapiens); conditions: text: 'drastically vanished', text says methylated CG-rich probe, legend says unmethylated; EMSA: LightShift kit protocol, 0.5x TBE native PAGE, buffer not stated; recombinant protein; protein details: His; label: biotin (EMSA)
T2 sequence (looked up, limits assumed): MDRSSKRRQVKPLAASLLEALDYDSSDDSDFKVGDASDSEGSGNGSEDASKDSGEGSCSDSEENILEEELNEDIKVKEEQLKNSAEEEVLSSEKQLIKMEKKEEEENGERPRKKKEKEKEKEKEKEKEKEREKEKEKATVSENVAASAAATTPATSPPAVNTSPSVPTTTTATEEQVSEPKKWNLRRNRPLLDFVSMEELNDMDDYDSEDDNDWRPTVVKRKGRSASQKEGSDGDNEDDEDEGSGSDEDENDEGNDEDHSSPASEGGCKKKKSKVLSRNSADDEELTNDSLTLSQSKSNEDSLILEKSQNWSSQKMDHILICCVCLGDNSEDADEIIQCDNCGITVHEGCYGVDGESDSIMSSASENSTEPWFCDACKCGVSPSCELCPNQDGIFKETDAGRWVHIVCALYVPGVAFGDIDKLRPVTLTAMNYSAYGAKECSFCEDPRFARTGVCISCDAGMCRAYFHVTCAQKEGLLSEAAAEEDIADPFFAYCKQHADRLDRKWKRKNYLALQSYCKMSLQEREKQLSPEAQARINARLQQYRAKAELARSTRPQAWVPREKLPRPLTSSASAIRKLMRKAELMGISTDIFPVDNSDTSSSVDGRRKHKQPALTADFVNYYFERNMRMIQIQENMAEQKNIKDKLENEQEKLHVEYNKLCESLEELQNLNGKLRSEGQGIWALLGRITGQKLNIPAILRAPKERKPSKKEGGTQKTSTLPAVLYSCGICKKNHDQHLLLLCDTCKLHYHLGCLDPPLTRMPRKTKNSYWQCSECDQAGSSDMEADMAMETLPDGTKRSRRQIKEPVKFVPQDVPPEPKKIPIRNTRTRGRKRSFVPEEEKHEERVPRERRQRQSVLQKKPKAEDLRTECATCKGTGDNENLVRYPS

[3] = tested on: T3, PHF14 full-length WT (Homo sapiens); conditions: EMSA: LightShift kit protocol, 0.5x TBE native PAGE, buffer not stated; recombinant protein; protein details: His; label: biotin (EMSA)
T3 sequence (looked up, limits assumed): T2 sequence (looked up, limits assumed) with A430E, A435K

Does “ACGGCTCGTCGCTACGGCTCGTCGCT (double strand) [CG-rich probe, unmethylated]” bind [1]?
Result: no binding

Does “ACGGCTCGTCGCTACGGCTCGTCGCT (double strand) [CG-rich probe, unmethylated]” bind [2]?
Result: no binding

Does “ACGGCTCGTCGCTACGGCTCGTCGCT (double strand) [CG-rich probe, unmethylated]” bind [3]?
Result: binds

Substitutions are numbered along the chain they refer to. The exact form of at least one protein or probe is not confirmed. For part of these data: A negative result means that nothing was seen under these conditions. At least one verdict was read from the data and is not stated in words by the source. Tags and fusion partners may be left off the protein sequences shown.
